The values that follow come from paper PMC7862700.

Amino acid sequences for entries named in this document (tags omitted). A change or cut given only in a name is not applied to a line headed by its entry.
UniProt O43186: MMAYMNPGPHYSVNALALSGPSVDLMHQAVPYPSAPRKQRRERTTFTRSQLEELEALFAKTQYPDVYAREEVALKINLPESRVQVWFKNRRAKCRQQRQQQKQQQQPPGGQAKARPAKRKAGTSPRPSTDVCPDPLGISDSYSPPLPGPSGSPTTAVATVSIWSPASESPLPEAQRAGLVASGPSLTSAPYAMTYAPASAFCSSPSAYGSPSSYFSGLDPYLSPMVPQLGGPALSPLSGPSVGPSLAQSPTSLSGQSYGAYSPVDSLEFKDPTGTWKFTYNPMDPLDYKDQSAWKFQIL

Only a part is listed here, and it is no random draw. At the low end of the ranking the order means little.

Holding throughout (assay): DAPPL (digital affinity profiling via proximity ligation, sequencing)
Conditions in all cases: 10 mM Tris-HCl pH 7.5, 50 mM NaCl, 1 mM DTT, 4% glycerol, room temperature, 30 min; GST-TFs on glutathione beads, 16-mer random dsDNA library, 0.1% …; high values mean tight binding; double strand, one strand shown; scale: fold enrichment (6-mer frequency, TF over GST control)

One assay has as its target T1, FEV (UniProt Q99581).
T1 sequence: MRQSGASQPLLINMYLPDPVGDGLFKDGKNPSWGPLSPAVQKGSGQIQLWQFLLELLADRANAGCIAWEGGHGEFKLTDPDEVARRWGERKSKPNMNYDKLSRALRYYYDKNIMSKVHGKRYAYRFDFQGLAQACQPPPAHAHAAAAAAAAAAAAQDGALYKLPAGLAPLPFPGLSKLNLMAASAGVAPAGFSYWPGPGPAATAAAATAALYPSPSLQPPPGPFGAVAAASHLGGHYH

A further assay concerns the target CRX (UniProt O43186).
Another assay deals with T2, ELF5 (UniProt Q9UKW6-2).
T2 sequence: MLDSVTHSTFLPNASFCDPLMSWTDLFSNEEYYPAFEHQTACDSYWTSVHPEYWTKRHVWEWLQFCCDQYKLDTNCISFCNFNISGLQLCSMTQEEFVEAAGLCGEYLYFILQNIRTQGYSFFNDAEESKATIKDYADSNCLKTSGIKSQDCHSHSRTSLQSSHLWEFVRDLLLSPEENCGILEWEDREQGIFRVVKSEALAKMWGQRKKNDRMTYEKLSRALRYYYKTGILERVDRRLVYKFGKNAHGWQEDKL

As to CAGGCG, the binding signal is 0.27 with FEV, 0.229 with CRX and 0.27 with ELF5.

Regarding GTACCG, the binding signal with FEV was determined as 0.85; with CRX it was 0.434; with ELF5 it was 0.757.

Consider GGAGAA, for which the binding signal with FEV amounted to 0.31; with CRX it was 0.301; in the assay with ELF5 it was 0.32.

AAGGTG: the binding signal in the assay with FEV was 0.851; with CRX it was 0.778; in the assay with ELF5, 0.883.

Take TCGTGA: the binding signal in the assay with FEV came out at 0.348; with CRX, 0.322; with ELF5 it was 0.338.

For TGTGAG, the binding signal turned out to be 0.333 with FEV, 0.314 in the assay with CRX and 0.329 with ELF5.

Turning to TGAGTT, the binding signal in the assay with FEV was determined as 0.386; with CRX, 0.389; in the assay with ELF5, 0.4.

In the case of ATAGGA, the binding signal was 0.777 with FEV, 0.838 with CRX and 0.849 in the assay with ELF5.

With GACACC, the binding signal with FEV stood at 0.987; in the assay with CRX it was 0.635; in the assay with ELF5, 0.843.

As for GAGGCG, the binding signal in the assay with FEV was determined as 0.347; with CRX it was 0.299; in the assay with ELF5, 0.344.

As for AGTGCG, the binding signal with FEV worked out at 0.811; in the assay with CRX, 0.577; with ELF5 it was 0.848.

As to GGGGAA, the values for the binding signal with FEV, with CRX and with ELF5 were 0.687, 0.553 and 0.87, respectively.

On to GGGTAC, for which the binding signal is 0.885 with FEV, 0.655 with CRX and 0.905 in the assay with ELF5.

GTGCCA: the binding signal with FEV was 0.807; with CRX it was 0.587; in the assay with ELF5 it was 0.745.

Take AGCCGA: the binding signal stood at 0.843 in the assay with FEV and 0.791 with ELF5.

CCGTGG: the binding signal was 0.426 with FEV, 0.34 in the assay with CRX and 0.433 in the assay with ELF5.

TACAGT: the binding signal stood at 0.818 in the assay with FEV, 0.846 in the assay with CRX and 0.836 with ELF5.

TCGGTA: the binding signal is 0.566 with FEV, 0.564 with CRX and 0.577 with ELF5.

On to TAGGTG, for which the binding signal with FEV amounted to 0.825; in the assay with CRX, 0.947; with ELF5, 0.766.

On to GGATGA, for which the results for the binding signal with FEV and with CRX were 0.951 and 1.11, respectively.

Take ACTAGT: the binding signal in the assay with FEV amounted to 0.832; with CRX, 0.843; in the assay with ELF5 it was 0.819.

For the sequence AAGAGG, the binding signal in the assay with FEV turned out to be 0.739; in the assay with CRX, 0.862; with ELF5 it was 0.923.

On to GGAAAG, for which the binding signal with FEV is 0.938; with CRX, 0.802.

On to GCGTAA, for which the binding signal with FEV was found to be 0.872; with ELF5, 0.881.

In the case of GAGGAA, the binding signal with FEV worked out at 0.713; with CRX, 0.454.

For the sequence GGAAGG, the binding signal stood at 0.776 with FEV and 0.435 with CRX.

For the sequence AGGATC, the binding signal was determined as 0.902 with FEV and 0.927 in the assay with ELF5.

As to GGCGAC, the binding signal with FEV is 0.895; in the assay with CRX it was 0.668; with ELF5, 0.824.

In the case of AGTAGT, the values for the binding signal with FEV and in the assay with CRX were 0.924 and 0.816, respectively.

In the case of TGTGTC, the results for the binding signal with FEV, in the assay with CRX and with ELF5 were 0.691, 0.556 and 0.747, respectively.

With TCCAGG, the binding signal in the assay with FEV came to 0.765; in the assay with CRX, 0.806.

Regarding CCGGGG, the binding signal in the assay with FEV was 0.742; in the assay with CRX it was 0.531; in the assay with ELF5, 0.791.

For the sequence GGACGC, the binding signal amounted to 0.402 with FEV, 0.253 with CRX and 0.388 with ELF5.

As to GGGATG, the figures for the binding signal with FEV and with CRX were 0.914 and 0.77, respectively.

Take CGGGAA: the binding signal was 0.657 in the assay with FEV and 0.54 with CRX.

Turning to CCAGCG, the figures for the binding signal in the assay with FEV, with CRX and in the assay with ELF5 were 0.613, 0.543 and 0.601, respectively.

On to ATCAGG, for which the binding signal came to 0.887 in the assay with FEV and 0.968 with ELF5.

For the sequence TCGTAA, the binding signal with FEV is 0.84; with ELF5, 0.943.

In the case of TAGCCG, the binding signal was 0.903 with FEV and 0.868 in the assay with ELF5.

As to GCATGG, the binding signal in the assay with FEV is 0.811; in the assay with CRX, 0.716; with ELF5, 0.786.

With GGCAAG, the values for the binding signal with FEV, in the assay with CRX and in the assay with ELF5 were 0.7, 0.557 and 0.662, respectively.

TTAGAC: the binding signal with FEV was 0.881; with ELF5, 0.765.

In the case of TCAGAA, the figures for the binding signal with FEV and in the assay with ELF5 were 0.886 and 0.89, respectively.

With AGCAGG, the results for the binding signal with FEV and with CRX were 0.836 and 0.734, respectively.

As for CAAGGA, the binding signal in the assay with FEV came to 0.683; with CRX, 0.665.

On to GTTAGT, for which the binding signal with FEV was found to be 0.72; with CRX, 0.749; with ELF5, 0.756.

Turning to GCATAA, the binding signal is 0.826 with FEV and 0.796 with ELF5.

Take GTCTGT: the binding signal in the assay with FEV stood at 0.836; with CRX, 0.643; with ELF5 it was 0.853.

Take GGGGAT: the binding signal in the assay with FEV stood at 0.607; with ELF5, 0.637.

Turning to GTCGCT, the binding signal in the assay with FEV stood at 0.758; in the assay with CRX, 0.551; with ELF5 it was 0.784.

For GCGGAT, the binding signal with FEV worked out at 0.952; with ELF5, 0.961.

Take AGACTA: the binding signal in the assay with FEV was 0.773; with ELF5 it was 0.782.

For CGGTAA, the figures for the binding signal with FEV and with CRX were 0.964 and 0.951, respectively.
